{
  "source": "the supplement of paper PMC12578635",
  "note": "± gives the standard deviation of the averaged measurements. This is one part of the list. Most values come without repeats; read them as rough.",
  "data": [
    {"test_system": "RAW 264.7 macrophages infected with S. aureus JE2-lux", "test": "host macrophage viability (CellTiter-Fluor) relative to DMSO vehicle; higher = more viable host cells", "conditions": "10 µM; treatment time 4 h; gentamicin 50 µg/ml", "units": {"host macrophage viability": "%"}, "values": [
      {"smiles": "COc1ccc(N2CCN(c3cc(C)nc4nncn34)CC2)cc1", "host macrophage viability": 108},
      {"smiles": "COC(=O)c1cccc(NC(=O)N2CCC(c3nnc(C(=O)Nc4ccccc4F)s3)CC2)c1", "host macrophage viability": 97.4},
      {"smiles": "CCOC(=O)c1cc(C)nc2c1c(=O)n(Cc1cccc(C(F)(F)F)c1)c(=O)n2C", "host macrophage viability": 115},
      {"smiles": "CCOc1ccc(CCNC(=O)COc2ncnc3oc(C)c(C)c23)cc1OCC", "host macrophage viability": 146},
      {"smiles": "Cc1sc2nc(C)n(C3CCN(C(=O)Cc4ccsc4)CC3)c(=O)c2c1C", "host macrophage viability": 117},
      {"smiles": "CCOc1ccc(Nc2c(CC)c(C)c(C#N)c3nc4ccccc4n23)cc1", "host macrophage viability": 119},
      {"smiles": "NC(=O)CSc1cn(Cc2ccc(Cl)cc2)c2ccccc12", "host macrophage viability": 95.1},
      {"smiles": "c1cncc(CSc2ncnc3c2sc2nc4ccccc4cc23)c1", "host macrophage viability": 125},
      {"smiles": "CCN1CCCC1CNCc1cc2c(C)cc(C)cc2n2c(=O)n(C)nc12", "note": "(centres undefined)", "host macrophage viability": 127},
      {"smiles": "O=C(Nc1nc2ccc3ccccc3c2s1)c1cccc(N2C(=O)CCC2=O)c1", "host macrophage viability": 124},
      {"smiles": "COc1cccc(/N=C2\\NC(=O)/C(=C3/C(=O)Nc4ccccc43)S2)c1", "host macrophage viability": "96.2 ± 2.3"},
      {"smiles": "Cn1cnc2cc(-c3noc(CNC(=O)C(c4ccccc4)c4ccccc4)n3)ccc21", "host macrophage viability": 105},
      {"smiles": "Cc1cc(NC(=O)CSc2c(C)[nH]c3ccccc23)no1", "host macrophage viability": 132},
      {"smiles": "O=C1CC(Nc2ccc(N3CCOCC3)cc2)C(=O)N1c1ccc(Cl)c(C(F)(F)F)c1", "note": "(centres undefined)", "host macrophage viability": 120},
      {"smiles": "CCN(CC)CCNC(=O)c1cc2cc([NH+]([O-])O)ccc2oc1=O", "note": "(centres undefined)", "host macrophage viability": 109},
      {"smiles": "O=C(CC(=O)N/N=C1\\C(=O)Nc2ccccc21)N/N=C1\\C(=O)Nc2ccccc21", "host macrophage viability": "91.7 ± 3.5"},
      {"smiles": "Cc1ccc(Cl)cc1NC(=O)NCCCn1c(C(F)(F)F)nc2cccnc21", "host macrophage viability": 130},
      {"smiles": "Cc1nnc(NC(=O)CSc2nnc(CNC(=O)c3ccco3)o2)s1", "host macrophage viability": 105},
      {"smiles": "CCCN1CCN(C(=O)Cn2c(C)nc3onc(C)c3c2=O)CC1", "host macrophage viability": 107},
      {"smiles": "CCC(Sc1nncn1C)C(=O)Nc1nnc(-c2ccc(F)cc2)s1", "note": "(centres undefined)", "host macrophage viability": "118 ± 20"},
      {"smiles": "CC1CC(C)CN(S(=O)(=O)c2ccc(C(=O)Nc3sccc3C(N)=O)cc2)C1", "note": "(centres undefined)", "host macrophage viability": 121},
      {"smiles": "CCC(=O)Nc1c(C(=O)OC)sc2ccccc12", "host macrophage viability": "112 ± 10"},
      {"smiles": "c1ccc(NCc2nnc3c(Nc4ccccc4)nc4ccccc4n23)cc1", "host macrophage viability": 105},
      {"smiles": "Cc1nc2sc(C(c3ccco3)N3CC(C)CC(C)C3)c(O)n2n1", "note": "(centres undefined)", "host macrophage viability": "107 ± 5.2"},
      {"smiles": "Cc1cc2cc(CCNC(=O)C34CC5CC(CC(C5)C3)C4)c(=O)[nH]c2cc1C", "host macrophage viability": 121},
      {"smiles": "Cc1ccc(CN2C(=O)/C(=C3/C(=O)Nc4ccccc43)SC2=S)cc1", "host macrophage viability": 130},
      {"smiles": "Cc1cc(NC(=O)C(=O)NCC(c2ccc3c(c2)CCCN3C)N2CCCC2)c2ccccc2n1", "note": "(centres undefined)", "host macrophage viability": 95.3},
      {"smiles": "COc1ccc(NC(=O)Cn2cc(C(=O)c3ccc(C)c(C)c3)c(=O)c3cc4c(cc32)OCO4)cc1", "host macrophage viability": 119},
      {"smiles": "O=C(/C=C1\\SC(=O)NC1=O)Nc1ncc(Cc2cccc(C(F)(F)F)c2)s1", "host macrophage viability": 104},
      {"smiles": "CCOC(=O)c1ccc(NC(=O)CCN2C(=O)/C(=C/c3ccccc3OC)SC2=S)cc1", "host macrophage viability": 99.4},
      {"smiles": "CCOC(=O)c1[nH]c2ccccc2c1NC(=O)c1ccc(N2C(=O)CCC2=O)cc1", "host macrophage viability": 101},
      {"smiles": "CCOC(=O)c1c(NC(=O)CCSc2nc3sc(C)c(C)c3c(=O)[nH]2)sc(C)c1C", "host macrophage viability": 133},
      {"smiles": "Cc1cc(NS(=O)(=O)c2ccc3onc(C(=O)N4CCCC4)c3c2)ccc1Br", "host macrophage viability": 83.3},
      {"smiles": "NS(=O)(=O)c1ccc(O)c(N2C(=O)c3cccc4c(C(=O)c5ccccc5)ccc(c34)C2=O)c1", "host macrophage viability": 115},
      {"smiles": "O=C1NCCc2c(OCc3cccc(C(F)(F)F)c3)cccc21", "host macrophage viability": 123},
      {"smiles": "Cc1ccc(-c2noc3ncnc(N4CCC(C(=O)NCc5ccc6c(c5)OCO6)CC4)c23)cc1", "host macrophage viability": 107},
      {"smiles": "O=C(CCC(=O)N1CCN(C(c2ccccc2)c2ccccc2)CC1)Nc1noc2ccccc12", "host macrophage viability": 121},
      {"smiles": "COc1ccc(-c2cc(C(=O)NC3CCCCC3C)n[nH]2)cc1S(=O)(=O)N(C)C", "note": "(centres undefined)", "host macrophage viability": 88.2},
      {"smiles": "CC(=O)Nc1ccc(NC2=NC(=O)/C(=C\\c3ccc(C)o3)S2)cc1", "host macrophage viability": 103},
      {"smiles": "CCN1CCN(c2ccc(C(=O)OC)cc2NC(=O)c2cccnc2)CC1", "host macrophage viability": 88.5},
      {"smiles": "COc1cc(NC(=O)N2CCn3cccc3C2c2ccc(F)c(F)c2)cc(OC)c1OC", "note": "(centres undefined)", "host macrophage viability": 121},
      {"smiles": "CCNc1nc(NCC)nc(Sc2ccc([N+](=O)[O-])cc2[N+](=O)[O-])n1", "host macrophage viability": 84},
      {"smiles": "Cc1oc2ncnc(N3CCCC(C(=O)N4CCN(C5CCCCC5)CC4)C3)c2c1C", "note": "(centres undefined)", "host macrophage viability": 127},
      {"smiles": "O=C(NCc1ccccc1)N1CCn2cccc2C1c1cccnc1", "note": "(centres undefined)", "host macrophage viability": 124},
      {"smiles": "O=C1Nc2ccccc2Oc2ccc(NS(=O)(=O)Cc3ccc(F)cc3)cc21", "host macrophage viability": 115},
      {"smiles": "CCc1c(C#N)c(SCC(=O)c2cc3ccccc3oc2=O)nc2c1CCC2", "host macrophage viability": 131},
      {"smiles": "Cc1ccc2cc3c(nc2c1)sc1c(SCC(=O)Nc2ccccc2F)ncnc13", "host macrophage viability": 106},
      {"smiles": "Cc1cccc(NC(=O)NC2(C(=O)NCc3ccco3)CCCCC2)c1", "host macrophage viability": 114},
      {"smiles": "O=C(Nc1ncnc2sccc12)c1ccc(C(=O)c2ccccc2)cc1", "host macrophage viability": 104},
      {"smiles": "COc1ccc(CCNC(=O)COc2cccc3c2CCN(Cc2cccnc2)C3=O)cc1OC", "host macrophage viability": 136},
      {"smiles": "O=C(Cn1c2ccccc2n2c(=O)cc(-c3cccc(Cl)c3)nc12)Nc1nccs1", "host macrophage viability": 97.9},
      {"smiles": "COc1cccc(-n2c(=O)c3sc4ccccc4c3n(CC(=O)NC3CCCCC3)c2=O)c1", "host macrophage viability": 107},
      {"smiles": "O=C(COc1ncnc2ccccc12)Nc1cccc(C(=O)N2CCOCC2)c1", "host macrophage viability": 115},
      {"smiles": "COc1ccc(S(=O)(=O)NCC2COC3(CCCCC3)O2)cc1F", "note": "(centres undefined)", "host macrophage viability": 116},
      {"smiles": "COc1ccc(C(=O)Nc2cc3c4c(c2)CC(=O)N4CCC3)c(OC)c1", "host macrophage viability": 125},
      {"smiles": "COc1cccc(-n2c(N)cc(=O)nc2SCC(=O)N2CCN(c3ccccc3)CC2)c1", "host macrophage viability": 104},
      {"smiles": "O=C(O)CC1S/C(=N/c2ccccc2)N(c2ccccc2)C1=O", "note": "(centres undefined)", "host macrophage viability": 104},
      {"smiles": "COc1ccc(C2c3[nH]c4ccccc4c3CCN2C(=O)c2cccnc2)cc1", "note": "(centres undefined)", "host macrophage viability": 118},
      {"smiles": "CCCC(=O)Nc1nc2c(s1)C(=O)CC(C)(C)C2", "host macrophage viability": 109},
      {"smiles": "O=C(CSCc1ccccc1)Nc1cc(Cl)ccc1Cl", "host macrophage viability": 102},
      {"smiles": "CCc1nc(-c2csc(S(=O)(=O)Nc3ccc(Cl)cn3)c2)no1", "host macrophage viability": 87.2},
      {"smiles": "CCc1ccc(Nc2nc(C(=O)O)nc3ccccc23)cc1", "host macrophage viability": 104},
      {"smiles": "CCOc1ccccc1NC(=O)Cn1c(C)c(Cc2ccccc2)c(=O)n2nc(-c3ccccc3)nc12", "host macrophage viability": 138},
      {"smiles": "Cc1cc(C)nc(NC(=O)c2ccc3c(c2)nnn3Cc2ccccc2C)n1", "host macrophage viability": 115}
    ]}
  ]
}
